Measurements taken from PMC10759669.
These are yes or no findings as the source states them, for the method shown. In cells and extracts the contact can be indirect. Some binding calls cover weakened binding; strength is not graded here. For part of these data: Sequences can lack the tags named with a protein.

T1: Flag-tagged MST1 (UniProt Q13043)
T1 sequence: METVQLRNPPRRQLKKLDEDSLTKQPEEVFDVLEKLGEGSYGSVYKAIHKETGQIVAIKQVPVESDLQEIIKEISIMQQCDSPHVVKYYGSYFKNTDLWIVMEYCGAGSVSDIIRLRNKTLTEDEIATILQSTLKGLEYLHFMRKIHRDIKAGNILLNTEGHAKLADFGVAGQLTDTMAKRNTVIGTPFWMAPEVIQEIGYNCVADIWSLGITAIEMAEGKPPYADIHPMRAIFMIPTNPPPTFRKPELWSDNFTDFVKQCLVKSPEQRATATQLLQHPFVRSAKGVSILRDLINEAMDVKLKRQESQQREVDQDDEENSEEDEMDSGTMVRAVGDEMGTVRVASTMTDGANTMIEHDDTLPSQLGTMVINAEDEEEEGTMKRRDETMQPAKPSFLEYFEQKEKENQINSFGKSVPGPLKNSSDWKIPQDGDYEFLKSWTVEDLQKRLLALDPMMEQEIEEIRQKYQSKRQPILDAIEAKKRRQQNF

T2: endogenous MST1 (human (endogenous in AGS)) (UniProt Q13043)
T2 sequence: T1 sequence

B1: HA-tagged GPR137 (G protein-coupled receptor 137) (receptor, UniProt Q96N19 1-417)
chain: MESNLSGLVPAAGLVPALPPAVTLGLTAAYTTLYALLFFSVYAQLWLVLLYGHKRLSYQTVFLALCLLWAALRTTLFSFYFRDTPRANRLGPLPFWLLYCCPVCLQFFTLTLMNLYFAQVVFKAKVKRRPEMSRGLLAVRGAFVGASLLFLLVNVLCAVLSHRRRAQPWALLLVRVLVSDSLFVICALSLAACLCLVARRAPSTSIYLEAKGTSVCQAAAMGGAMVLLYASRACYNLTALALAPQSRLDTFDYDWYNVSDQADLVNDLGNKGYLVFGLILFVWELLPTTLLVGFFRVHRPPQDLSTSHILNGQVFASRSYFFDRAGHCEDEGCSWEHSRGESTRCQDQAATTTVSTPPHRRDPPPSPTEYPGPSPPHPRPLCQVCLPLLAQDPGGRGYPLLWPAPCCSCHSELVPSP
B2: endogenous GPR137 (receptor, UniProt Q96N19 1-417)
chain: B1 chain
B3: GPR137 overexpressed in AGS cells (receptor, UniProt Q96N19 1-417)
chain: B1 chain

Assays:
Flag-tagged MST1 = target: T1, Flag-tagged MST1; experiment: co-IP; HEK293T cells expressing HA-tagged GPR137 and Flag-tagged MST1; IP: Flag; WB: HA
[1] = target: T2, endogenous MST1 (human (endogenous in AGS)); experiment: co-IP; AGS cell lysate (100 mM NaCl, 50 mM Tris-HCl pH 8.0, 5 mM EDTA, 1% Brij35); IP: MST1 antibody with protein A/G plus agarose, IgG as negative control; WB: GPR137 or LATS1; for MST1-LATS1 cells with or without transfected GPR137 or XMU-MP-1

Binder | binding (Flag-tagged MST1) | binding [1]
B1 | binds | 
B2 |  | binds
B3 |  | binds
